From PMC8551335 come the findings set out here.

The chains behind the UniProt entries cited, without tags or fusion partners.
UniProt Q13315: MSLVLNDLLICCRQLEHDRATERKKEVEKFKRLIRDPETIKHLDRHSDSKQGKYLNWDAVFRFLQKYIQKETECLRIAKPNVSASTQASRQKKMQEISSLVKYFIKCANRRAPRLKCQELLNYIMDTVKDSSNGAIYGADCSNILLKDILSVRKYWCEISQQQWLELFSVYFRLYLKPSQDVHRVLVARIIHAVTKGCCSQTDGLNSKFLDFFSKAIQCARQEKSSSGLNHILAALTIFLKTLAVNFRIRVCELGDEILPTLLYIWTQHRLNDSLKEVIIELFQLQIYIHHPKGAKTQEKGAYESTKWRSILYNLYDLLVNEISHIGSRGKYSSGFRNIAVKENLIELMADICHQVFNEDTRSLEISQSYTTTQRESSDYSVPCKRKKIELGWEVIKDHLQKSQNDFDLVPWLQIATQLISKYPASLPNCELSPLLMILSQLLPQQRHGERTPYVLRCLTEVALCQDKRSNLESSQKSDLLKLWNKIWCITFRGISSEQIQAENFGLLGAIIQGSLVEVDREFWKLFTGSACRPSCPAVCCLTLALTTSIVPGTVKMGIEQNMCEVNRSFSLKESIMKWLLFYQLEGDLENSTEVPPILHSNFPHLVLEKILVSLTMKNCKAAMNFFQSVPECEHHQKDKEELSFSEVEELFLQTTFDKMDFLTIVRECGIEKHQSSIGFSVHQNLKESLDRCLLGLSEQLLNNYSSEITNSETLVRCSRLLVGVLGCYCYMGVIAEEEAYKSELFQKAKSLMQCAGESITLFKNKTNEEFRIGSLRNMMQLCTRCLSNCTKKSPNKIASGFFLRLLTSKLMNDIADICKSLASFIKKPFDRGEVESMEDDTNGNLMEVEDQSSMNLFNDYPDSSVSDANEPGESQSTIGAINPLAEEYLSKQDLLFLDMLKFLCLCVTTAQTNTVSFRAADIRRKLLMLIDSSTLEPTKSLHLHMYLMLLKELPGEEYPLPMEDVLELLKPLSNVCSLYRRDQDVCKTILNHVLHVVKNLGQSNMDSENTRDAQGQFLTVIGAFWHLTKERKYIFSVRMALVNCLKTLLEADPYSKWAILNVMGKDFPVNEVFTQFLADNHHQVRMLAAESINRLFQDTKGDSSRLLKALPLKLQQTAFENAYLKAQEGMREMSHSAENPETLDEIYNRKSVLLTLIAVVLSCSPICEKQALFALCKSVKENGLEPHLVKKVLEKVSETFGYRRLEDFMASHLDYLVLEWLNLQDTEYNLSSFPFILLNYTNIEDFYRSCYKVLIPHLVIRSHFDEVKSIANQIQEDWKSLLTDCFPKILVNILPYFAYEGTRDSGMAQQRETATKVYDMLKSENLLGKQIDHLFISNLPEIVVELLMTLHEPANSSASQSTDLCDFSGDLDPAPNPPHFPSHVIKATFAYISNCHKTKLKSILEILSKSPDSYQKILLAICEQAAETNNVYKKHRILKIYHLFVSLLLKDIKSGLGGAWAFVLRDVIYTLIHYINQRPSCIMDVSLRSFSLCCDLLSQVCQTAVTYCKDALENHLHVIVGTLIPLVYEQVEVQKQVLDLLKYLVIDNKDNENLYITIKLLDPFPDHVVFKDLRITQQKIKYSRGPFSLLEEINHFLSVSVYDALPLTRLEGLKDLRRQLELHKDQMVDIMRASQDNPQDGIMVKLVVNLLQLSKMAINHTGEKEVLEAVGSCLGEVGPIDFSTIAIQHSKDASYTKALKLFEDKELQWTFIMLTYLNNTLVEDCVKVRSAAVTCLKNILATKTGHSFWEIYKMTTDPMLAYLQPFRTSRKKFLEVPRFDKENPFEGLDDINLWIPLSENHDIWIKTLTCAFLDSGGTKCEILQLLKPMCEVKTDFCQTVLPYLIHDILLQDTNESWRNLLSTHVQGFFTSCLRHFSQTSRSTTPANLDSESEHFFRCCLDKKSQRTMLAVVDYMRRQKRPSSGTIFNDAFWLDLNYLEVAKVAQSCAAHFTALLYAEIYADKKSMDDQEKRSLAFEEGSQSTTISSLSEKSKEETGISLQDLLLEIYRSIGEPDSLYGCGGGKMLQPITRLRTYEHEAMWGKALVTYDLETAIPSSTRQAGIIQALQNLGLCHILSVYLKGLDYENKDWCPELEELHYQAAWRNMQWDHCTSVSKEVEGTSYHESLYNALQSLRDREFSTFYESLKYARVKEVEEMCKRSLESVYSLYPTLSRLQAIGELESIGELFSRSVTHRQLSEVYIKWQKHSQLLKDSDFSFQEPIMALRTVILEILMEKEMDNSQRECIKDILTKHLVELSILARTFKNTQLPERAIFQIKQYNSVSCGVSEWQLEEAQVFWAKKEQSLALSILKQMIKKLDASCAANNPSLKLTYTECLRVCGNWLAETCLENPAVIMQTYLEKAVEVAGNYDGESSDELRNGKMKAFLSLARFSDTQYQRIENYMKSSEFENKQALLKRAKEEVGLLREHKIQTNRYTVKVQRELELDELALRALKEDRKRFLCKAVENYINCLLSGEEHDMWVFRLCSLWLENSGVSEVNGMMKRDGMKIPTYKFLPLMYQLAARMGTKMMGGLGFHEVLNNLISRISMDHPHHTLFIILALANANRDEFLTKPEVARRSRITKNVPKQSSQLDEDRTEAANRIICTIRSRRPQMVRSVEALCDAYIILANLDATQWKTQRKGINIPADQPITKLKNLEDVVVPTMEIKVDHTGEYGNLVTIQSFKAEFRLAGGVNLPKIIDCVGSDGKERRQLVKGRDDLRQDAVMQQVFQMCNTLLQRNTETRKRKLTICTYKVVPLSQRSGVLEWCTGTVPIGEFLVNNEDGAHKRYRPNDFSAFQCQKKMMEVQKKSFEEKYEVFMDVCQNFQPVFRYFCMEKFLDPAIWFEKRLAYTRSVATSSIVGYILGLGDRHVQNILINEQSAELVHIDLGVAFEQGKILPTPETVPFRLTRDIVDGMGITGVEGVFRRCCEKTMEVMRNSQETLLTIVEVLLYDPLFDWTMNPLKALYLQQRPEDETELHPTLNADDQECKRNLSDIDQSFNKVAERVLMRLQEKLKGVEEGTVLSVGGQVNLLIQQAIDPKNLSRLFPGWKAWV
UniProt Q62388: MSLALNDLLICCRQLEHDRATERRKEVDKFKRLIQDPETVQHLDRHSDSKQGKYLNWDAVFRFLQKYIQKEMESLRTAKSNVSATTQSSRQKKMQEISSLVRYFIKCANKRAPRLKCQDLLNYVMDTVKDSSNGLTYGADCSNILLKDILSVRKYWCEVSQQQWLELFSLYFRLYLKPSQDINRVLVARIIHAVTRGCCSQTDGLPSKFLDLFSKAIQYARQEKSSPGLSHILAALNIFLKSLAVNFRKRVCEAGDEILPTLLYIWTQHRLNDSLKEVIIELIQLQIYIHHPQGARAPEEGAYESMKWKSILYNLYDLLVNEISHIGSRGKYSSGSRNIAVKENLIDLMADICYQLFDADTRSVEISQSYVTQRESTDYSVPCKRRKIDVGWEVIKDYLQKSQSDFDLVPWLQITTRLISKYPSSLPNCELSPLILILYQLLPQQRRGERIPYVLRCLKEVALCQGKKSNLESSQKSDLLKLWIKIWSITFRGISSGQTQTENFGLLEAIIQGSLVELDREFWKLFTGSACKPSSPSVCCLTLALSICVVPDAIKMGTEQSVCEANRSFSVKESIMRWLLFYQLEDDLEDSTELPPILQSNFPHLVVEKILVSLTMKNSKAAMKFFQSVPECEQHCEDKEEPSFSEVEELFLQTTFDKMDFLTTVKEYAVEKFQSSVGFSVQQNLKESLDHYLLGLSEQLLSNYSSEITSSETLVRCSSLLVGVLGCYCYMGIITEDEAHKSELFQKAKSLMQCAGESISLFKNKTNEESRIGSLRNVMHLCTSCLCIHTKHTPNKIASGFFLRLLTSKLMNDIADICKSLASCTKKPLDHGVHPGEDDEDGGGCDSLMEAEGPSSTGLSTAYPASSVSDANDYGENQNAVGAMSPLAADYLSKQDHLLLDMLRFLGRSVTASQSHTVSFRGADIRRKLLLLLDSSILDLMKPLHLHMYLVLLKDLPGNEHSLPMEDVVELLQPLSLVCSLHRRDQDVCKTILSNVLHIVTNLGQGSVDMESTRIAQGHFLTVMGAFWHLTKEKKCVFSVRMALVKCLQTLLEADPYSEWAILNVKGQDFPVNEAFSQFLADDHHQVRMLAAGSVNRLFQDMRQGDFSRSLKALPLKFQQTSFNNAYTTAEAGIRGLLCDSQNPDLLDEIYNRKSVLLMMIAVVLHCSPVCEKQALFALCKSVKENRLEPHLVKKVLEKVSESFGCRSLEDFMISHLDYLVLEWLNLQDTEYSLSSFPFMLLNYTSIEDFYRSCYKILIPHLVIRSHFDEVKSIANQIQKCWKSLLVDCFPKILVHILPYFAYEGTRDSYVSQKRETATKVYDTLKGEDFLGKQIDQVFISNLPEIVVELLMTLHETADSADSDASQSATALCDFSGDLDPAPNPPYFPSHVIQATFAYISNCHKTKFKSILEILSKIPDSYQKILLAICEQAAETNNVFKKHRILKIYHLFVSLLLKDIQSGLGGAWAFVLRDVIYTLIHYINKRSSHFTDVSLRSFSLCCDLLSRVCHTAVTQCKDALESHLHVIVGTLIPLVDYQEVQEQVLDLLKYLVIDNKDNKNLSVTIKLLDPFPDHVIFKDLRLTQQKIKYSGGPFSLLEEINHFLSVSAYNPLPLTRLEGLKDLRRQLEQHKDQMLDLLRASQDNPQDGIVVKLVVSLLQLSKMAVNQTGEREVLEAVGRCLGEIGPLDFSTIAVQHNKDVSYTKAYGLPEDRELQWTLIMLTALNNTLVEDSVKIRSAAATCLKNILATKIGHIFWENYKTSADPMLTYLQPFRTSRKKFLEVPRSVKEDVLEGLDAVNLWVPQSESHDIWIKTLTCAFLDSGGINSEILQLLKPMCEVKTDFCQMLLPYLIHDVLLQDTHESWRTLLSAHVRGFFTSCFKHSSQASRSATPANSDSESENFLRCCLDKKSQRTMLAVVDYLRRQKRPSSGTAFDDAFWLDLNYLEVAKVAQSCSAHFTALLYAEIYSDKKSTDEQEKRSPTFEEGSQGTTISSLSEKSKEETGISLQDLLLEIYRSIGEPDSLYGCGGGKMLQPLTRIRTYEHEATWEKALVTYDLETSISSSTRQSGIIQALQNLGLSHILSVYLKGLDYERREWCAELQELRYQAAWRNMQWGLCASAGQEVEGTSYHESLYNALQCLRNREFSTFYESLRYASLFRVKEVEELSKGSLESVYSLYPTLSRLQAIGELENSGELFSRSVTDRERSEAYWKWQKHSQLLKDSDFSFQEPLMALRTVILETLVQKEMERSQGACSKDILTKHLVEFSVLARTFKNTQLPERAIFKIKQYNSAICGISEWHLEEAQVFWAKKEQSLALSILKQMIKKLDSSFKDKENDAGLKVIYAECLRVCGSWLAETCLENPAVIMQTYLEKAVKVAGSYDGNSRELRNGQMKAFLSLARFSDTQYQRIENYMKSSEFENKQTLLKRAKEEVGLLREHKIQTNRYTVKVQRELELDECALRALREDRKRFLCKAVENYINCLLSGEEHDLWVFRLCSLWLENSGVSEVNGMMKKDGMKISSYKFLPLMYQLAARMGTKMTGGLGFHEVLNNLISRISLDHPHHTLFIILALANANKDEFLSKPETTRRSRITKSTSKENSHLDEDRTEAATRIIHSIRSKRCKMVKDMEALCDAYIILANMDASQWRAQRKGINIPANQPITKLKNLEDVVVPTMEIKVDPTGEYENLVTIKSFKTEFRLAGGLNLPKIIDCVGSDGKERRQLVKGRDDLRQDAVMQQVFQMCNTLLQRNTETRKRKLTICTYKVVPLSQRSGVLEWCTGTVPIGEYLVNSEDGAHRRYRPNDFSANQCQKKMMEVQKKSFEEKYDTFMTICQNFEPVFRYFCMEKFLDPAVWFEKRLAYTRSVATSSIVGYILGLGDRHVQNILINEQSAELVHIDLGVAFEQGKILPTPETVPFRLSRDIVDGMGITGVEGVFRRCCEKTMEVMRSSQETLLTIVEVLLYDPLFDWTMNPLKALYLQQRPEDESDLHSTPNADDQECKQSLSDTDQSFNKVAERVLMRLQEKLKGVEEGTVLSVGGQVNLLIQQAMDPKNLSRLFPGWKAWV

No constants are given. Whether binding was seen depends on the method and setting. Binding seen in cells or lysates may run through a third protein. Some results given as binding are weak or reduced against the parent protein; the word gives no strength. For some of these results: Where a sequence is shown, tags or fusion partners need not be part of it.

The target of assay [1] is HA-cGAS (in HA-cGAS-reconstituted cGAS−/− immortalized MEFs) (UniProt Q8C6L5). Description: co-IP; anti-HA immunoprecipitates from HA-cGAS-reconstituted cGAS−/− immortalized MEFs with or without doxorubicin (2 μM for 6 h); immunoblot for γH2AX and ATM; RIPA lysis, Dynabeads Protein G. (Immunoblotting shows a protein as a band on a membrane.)
Assay [2] deals with ATM (endogenous, immunoprecipitated from treated cells, Fig. 5i) (UniProt Q13315). Description: co-IP; ATM immunoprecipitated from cells mock treated or treated with CPT 5 μM, etoposide 10 μM or 2 μg cGAMP for 16 h; immunoblot for TBK1; RIPA lysis, Dynabeads Protein G.
For assay [3], the target named is ATM (endogenous, immunoprecipitated from HEK293-GFP cells) (human (endogenous in HEK293)) (UniProt Q13315). Description: co-IP; endogenous ATM or GFP immunoprecipitated from HEK293-GFP lysate on Dynabeads Protein G, beads washed and incubated with recombinant GST-TBK1 in IP buffer at 30 °C for 1 h, washed 3 times, immunoblot for TBK1; only the binder purified.

“ATM, endogenous in MEFs (from UniProt Q62388 1-3066) (enzyme)”: in assay [1], the binding entry is “no binding”.
For “γH2AX (phosphorylated histone H2AX), endogenous in MEFs (from UniProt P27661 1-143)”, the binding result in assay [1] is given as “binds”.

B1: TANK-binding kinase 1 (TBK1), endogenous (Fig. 5i) (enzyme, UniProt Q9UHD2 1-729)
chain: MQSTSNHLWLLSDILGQGATANVFRGRHKKTGDLFAIKVFNNISFLRPVDVQMREFEVLKKLNHKNIVKLFAIEEETTTRHKVLIMEFCPCGSLYTVLEEPSNAYGLPESEFLIVLRDVVGGMNHLRENGIVHRDIKPGNIMRVIGEDGQSVYKLTDFGAARELEDDEQFVSLYGTEEYLHPDMYERAVLRKDHQKKYGATVDLWSIGVTFYHAATGSLPFRPFEGPRRNKEVMYKIITGKPSGAISGVQKAENGPIDWSGDMPVSCSLSRGLQVLLTPVLANILEADQEKCWGFDQFFAETSDILHRMVIHVFSLQQMTAHKIYIHSYNTATIFHELVYKQTKIISSNQELIYEGRRLVLEPGRLAQHFPKTTEENPIFVVSREPLNTIGLIYEKISLPKVHPRYDLDGDASMAKAITGVVCYACRIASTLLLYQELMRKGIRWLIELIKDDYNETVHKKTEVVITLDFCIRNIEKTVKVYEKLMKINLEAAELGEISDIHTKLLRLSSSQGTIETSLQDIDSRLSPGGSLADAWAHQEGTHPKDRNVEKLQVLLNCMTEIYYQFKKDKAERRLAYNEEQIHKFDKQKLYYHATKAMTHFTDECVKKYEAFLNKSEEWIRKMLHLRKQLLSLTNQCFDIEEEVSKYQEYTNELQETLPQKMFTASSGIKHTMTPIYPSSNTLVEMTLGMKKLKEEMEGVVKELAENNHILERFGSLTMDGGLRNVDCL
B1: in assay [2], the binding entry is given as “binds”.

B2: recombinant GST-tagged TBK1 (Sigma Cat# SRP5089) (enzyme, UniProt Q9UHD2 1-729)
chain: B1 chain
Consider B2, for which the binding entry in assay [3] is “binds”.
